Test results as given in the supplement of paper PMC10338343.
± gives the standard deviation. The list shows a part of the results, in another mix than the full data. The uncertainty is large for many entries.

System: MILI (PIWIL2) piRISC loaded with L1MC piRNA (26 nt)
Assay: pre-steady-state target cleavage rate (min^-1); MIWI and MILI are mouse PIWI proteins and EfPiwi is from a freshwater sponge; tags in brackets are library labels; higher = faster piRNA-guided slicing of the target
Conditions: guide: L1MC piRNA 5'p-UAACUAAAUACUAUGCAAGCUGUAGG; auxiliary factor: 500 nM mouse GTSF1
Method: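 Cleave-'n-Seq: a library of target RNAs (target site embedded in constant flanks, ACAGCATTCCGCGTTAGTGATATCCG... 5' flank; DNA-blocked outside the site) at 0.1 nM was incubated with 1 nM active mouse MILI or MIWI piRISC (synthetic 5'-monophosphorylated piRNA guide) with or without 500 nM mouse GTSF1 at 33 °C for 1 min to 16 h. Uncleaved targets were sequenced and normalised to non-target controls, and the pooled three trials were fitted to a burst-and-steady-state model to give the pre-steady-state cleavage rate (min^-1; k3 is constrained to at most 1e-4). Sequence is the target site only; target names encode pairing extent (gX:gY) and contiguous / 1-mismatch / 2-mismatch / bulge geometry. Fits with R² ≤ 0 are excluded.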

Q: With UCCUGGAUGAGCUUGCAUAGUAUUUAGGUUA as the sequence, how does the “pre-steady-state target cleavage rate” value read?
A: 0.195 ± 0.028

Q: For UCCUGGAUGAGCUUGCAAUGUAUUUAGAAA, which “pre-steady-state target cleavage rate” value is on record?
A: 0.00311 ± 0.004

Q: With UCCUGGAUCAGCUUCCAUAGUAUUUACUUA as the sequence, how does the “pre-steady-state target cleavage rate” value read?
A: 0.00216 ± 0.0049

Q: Which “pre-steady-state target cleavage rate” value does the source give for UCCUGGAUGUCGAACGUAAGUAUUUAUUA here?
A: 0.00019 ± 0.036

Q: For UCCUGGAUGUCGAUGCAUAGUAUUGAGUUA, which “pre-steady-state target cleavage rate” value is on record?
A: 0.0608 ± 0.013

Q: How did the “pre-steady-state target cleavage rate” value turn out when UCCUGGAUGUCCUUGCAUAGUAUUUACAUA was run?
A: 0.039 ± 0.013

Q: UCCUGGAUGUCGUUGCAUAGAUUUAGUUA was tested. Which “pre-steady-state target cleavage rate” value did it give?
A: 0.00113 ± 0.0065

Q: For UCCUCCUACAGCUUGCAAAGUAAUUAGUUA, which “pre-steady-state target cleavage rate” value is on record?
A: 0.116 ± 0.012

Q: UCCUCCUACAGCUUCCUUAGUAUUUAGUUA was tested. Which “pre-steady-state target cleavage rate” value did it give?
A: 0.216 ± 0.025

Q: How did the “pre-steady-state target cleavage rate” value turn out when UCCUGCUACAGCUUGCAUACUAUUAAGUUA was run?
A: 0.0719 ± 0.018

Q: With UCCUGCUACAGCUUGCAUAGUAUAUAGUUA as the sequence, how does the “pre-steady-state target cleavage rate” value read?
A: 0.227 ± 0.029

Q: With UCCUGGAUGUGCUUGCAUAGUAUUUCGUUA as the sequence, how does the “pre-steady-state target cleavage rate” value read?
A: 0.0261 ± 0.0098

Same assay, conditions: guide: L1MC piRNA 5'p-UAACUAAAUACUAUGCAAGCUGUAGG; auxiliary factor: none (no GTSF1)

Q: Which “pre-steady-state target cleavage rate” value does the source give for UCCUGGAUCAGCAUGCAUAGUAUUUACAAA here?
A: 0.00112 ± 0.0061

Q: How did the “pre-steady-state target cleavage rate” value turn out when UCCUGGAUGAGCUUGCAUAGUAUUUAGGUUA was run?
A: 0.0044 ± 0.0031

Q: With UCCUGGAUGUCGAACCAUAGUGUUUAGUUA as the sequence, how does the “pre-steady-state target cleavage rate” value read?
A: 0.000372 ± 0.011

Q: For UCCUGGAUGAGCUUGCAAUGUAUUUAGAAA, which “pre-steady-state target cleavage rate” value is on record?
A: 0.00127 ± 0.0058

Q: UCCUGGUACAGCUUGCAAAGUAUUUACUUA was tested. Which “pre-steady-state target cleavage rate” value did it give?
A: 0.00161 ± 0.0037

Q: UCCUGGAUCAGCUUCCAUAGUAUUUACUUA was tested. Which “pre-steady-state target cleavage rate” value did it give?
A: 0.000345 ± 0.018

Q: With UCCUGGAUGUCGAACGUAAGUAUUUAUUA as the sequence, how does the “pre-steady-state target cleavage rate” value read?
A: 0.000159 ± 0.036

Q: With UCCUGGUACAGCUUGCAUACAAUUUAGUUA as the sequence, how does the “pre-steady-state target cleavage rate” value read?
A: 0.00451 ± 0.0027

Q: How did the “pre-steady-state target cleavage rate” value turn out when UCCUGGAUGUCGUUGCAUACUAUAUAGUUA was run?
A: 0.000571 ± 0.011

Q: With UCCUCCUACAGCUUGCAUUCUAUUUACAAA as the sequence, how does the “pre-steady-state target cleavage rate” value read?
A: 0.000501 ± 0.012

Q: UCCUGGUACACCUUCCAUAGUAUUUAGUUA was tested. Which “pre-steady-state target cleavage rate” value did it give?
A: 0.00141 ± 0.0074

Q: How did the “pre-steady-state target cleavage rate” value turn out when UCCUGGUACAGCUUGCAUAGUAAAUAGAAA was run?
A: 0.000907 ± 0.0069

Q: For UCCUGGAUGUCGAUGCAUAGUAUUGAGUUA, which “pre-steady-state target cleavage rate” value is on record?
A: 0.00306 ± 0.0032

Q: For UCCUGGAUGUCCUUGCAUAGUAUUUACAUA, which “pre-steady-state target cleavage rate” value is on record?
A: 0.000934 ± 0.0068

Q: Which “pre-steady-state target cleavage rate” value does the source give for UCCUGGAUGAGCUACGAUAGUAUUUAGUUA here?
A: 0.00085 ± 0.0064

Q: With UCCUGCUACAGCUUGCAUAGUUUUUAGUAA as the sequence, how does the “pre-steady-state target cleavage rate” value read?
A: 0.00123 ± 0.0053

Q: How did the “pre-steady-state target cleavage rate” value turn out when UCCUGGAACACGUUGCAUAGUAUUUAGAAA was run?
A: 0.00105 ± 0.0072

Q: For UCCUCCUACAGCUUGCAUAGUUUAUAGUUA, which “pre-steady-state target cleavage rate” value is on record?
A: 0.00252 ± 0.0029

Q: With UCCUGGAUGUCGUUGCAUAGAUUUAGUUA as the sequence, how does the “pre-steady-state target cleavage rate” value read?
A: 0.00104 ± 0.0055

Q: For UCCUGGAACACGAUGCAUAGUAUUUACAAA, which “pre-steady-state target cleavage rate” value is on record?
A: 0.00131 ± 0.0048

Q: UCCUCCUACAGCUUGCAAAGUAAUUAGUUA was tested. Which “pre-steady-state target cleavage rate” value did it give?
A: 0.00331 ± 0.0024

Q: How did the “pre-steady-state target cleavage rate” value turn out when UCCUCCUACAGCUUCCUUAGUAUUUAGUUA was run?
A: 0.00443 ± 0.002

Q: How did the “pre-steady-state target cleavage rate” value turn out when UCCUGCUACAGCUUGCAUACUAUUAAGUUA was run?
A: 0.00141 ± 0.0043

Q: How did the “pre-steady-state target cleavage rate” value turn out when UCCUGGAUCAGGAAGCAUAGUAUUUACAAA was run?
A: 0.000793 ± 0.0064

Q: UCCUGCUACAGCUUGGUUAGUAUUUAGAAA was tested. Which “pre-steady-state target cleavage rate” value did it give?
A: 0.00118 ± 0.005

Q: With UCCUGCUACAGCUUGCAUAGUAUAUAGUUA as the sequence, how does the “pre-steady-state target cleavage rate” value read?
A: 0.00382 ± 0.0029

Q: For UCCUGGAUGUGCUUGCAUAGUAUUUCGUUA, which “pre-steady-state target cleavage rate” value is on record?
A: 0.00115 ± 0.0065
